Results are given in words; binding and its absence hold for the method and conditions named. Some binding calls cover weakened binding; strength is not graded here.
Molecular target: Myo抗原(购买于Meridian公司) (UniProt P02144)
Assay: sandwich lateral-flow card, M26 coated at 1 mg/ml as capture, Myo antigen at 200 and 50 ng/ml

Protein sequences, listed by entry. Tags and fused reporters are not part of them. Residues count along the entry.
UniProt P02144, residues 2-154: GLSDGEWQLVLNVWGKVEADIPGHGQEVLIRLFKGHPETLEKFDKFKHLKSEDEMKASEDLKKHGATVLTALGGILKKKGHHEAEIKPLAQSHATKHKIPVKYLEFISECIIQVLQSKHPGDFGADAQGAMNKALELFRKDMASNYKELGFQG

B1: 单链抗体M26 (scFv, not shown: small tags and cut ends)
scFv: QVQLQQSGDDLVKPGASVKLSCKASGYTFTSYWINWIKQRPGQGLEWIGRIAPEGDSTYYNEMFKGKATLTVDTSSSTAYIQLSSLSSEDSAVYFCAREVRNAMDYWGQGTSVTVSSGGGGSGGGGSGGGGSDIQMNQSPSSLSASLGDTITITCHASQNIHVWLSWYLQKPGNITKLLIYEASNLHTGVPSRFSGSGSGTGFTLTISSLQPEDIATYYCQQGQRYPLTFGGGTKLEIK
  binding: binds

From patent CN109734803A
